From PubChem BioAssay AID504444 (National Center for Advancing Translational Sciences (NCATS), 2011)
Screen size: about 360,000 compounds; about 7,500 (2.1%) were called active. This list was built around the results that the source calls inconclusive (neither active nor inactive); the mix of calls is not that of the screen. Calls follow the shape of the dose curve; as a rule, active = well fitted inhibition curve with a large enough effect; inconclusive = small, poorly fitted or top-dose-only effect, or effect the other way; inactive = flat fitted curve, though single readings scatter. Where the call is inconclusive, the potency comes from a doubtful curve fit.

Experiment: Nrf2 qHTS screen for inhibitors; also: nearly all actives have a fitted effect of over 60% in size
Settings: A549 ARE-Fluc reporter, luciferase luminescence, 18-24 h; activity change, negative = inhibition: at 46 µM (top of the series)
Method in brief: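 Cells were seeded and rested 2 h, then exposed to compounds for 18-24 h. CellTiter-Fluor was read first as a viability measure. BugLite was added 15 min before the final luminescent read of ARE-luciferase activity in A549 cells.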
% is scaled to controls: 0 for no effect and ±100 for the full control effect; potency is read from the fitted curve at half-maximal effect.

| Compound | Potency | activity change, negative = inhibition |
| --- | --- | --- |
| COc1ccc(S(=O)(=O)N2CCCCC2)cc1NC(=O)C1CC(=O)N(Cc2ccccc2)C1 (centres undefined) | inconclusive: 18.4 µM [falling, partial curve, poor fit] |  |
| Cc1onc(-c2c(Cl)cccc2Cl)c1COC(=O)c1ccc(Cl)cc1[N+](=O)[O-] | inconclusive: 20.6 µM [activator, partial curve, poor fit] |  |
| Cc1cc(=O)oc2ccc(OCC(=O)N(Cc3ccc(F)cc3)Cc3ccco3)cc12 | inconclusive: 29.1 µM [falling, single point] |  |
| Cc1ccnn1-c1ccc(C(=O)N2CCCN(S(=O)(=O)c3ccc(F)cc3)CC2)cc1 | inconclusive: 23.1 µM [falling, partial curve, poor fit] |  |
| CC1(C)Cc2c(c(N3CCOCC3)nc3sc(C#N)c(N)c23)CS1 |  | inactive: 1.29% |
| O=C(CCc1ccccc1)Nc1ccc(F)cc1F | inconclusive: 9.2 µM [activator, partial curve, poor fit] |  |
| Cc1cccc(C)c1OCC(=O)Nc1nonc1-c1ccc(Br)cc1 |  | inactive: -6.76% |
| Cn1ccc2cc(OCc3ccccc3)ccc21 | inconclusive: 10.3 µM [activator, partial curve] |  |
| Fc1ccc2c(c1)c1n[nH]c(=S)nc1n2CCc1ccccc1 | inconclusive: 16.4 µM [falling, partial curve, poor fit] |  |
| O=[N+]([O-])c1cccc(-c2noc(-c3cccs3)n2)c1 | inconclusive: 6.51 µM [activator, partial curve] |  |
| CCc1ccc2nc(-c3cccc(C)c3)nc(SCC(=O)NCC3CCCO3)c2c1 (centres undefined) |  | inactive: 1.09% |
| COc1ccccc1N1CSC2=C(C#N)C(c3ccc(SC)cc3)CC(=O)N2C1 (centres undefined) |  | inactive: -5.44% |
| CCCc1cc(NC(=O)CCl)n(-c2ccccc2)n1 |  | inactive: 15.7% |
| CCCCn1c(=S)[nH]c2cc(S(=O)(=O)N3CCCCC3)ccc21 | inconclusive: 8.2 µM [falling, partial curve, poor fit] |  |
| Cc1cc2cc(C)c(NCCNC(=O)c3ccccc3Cl)nc2cc1C | inconclusive: 20.6 µM [falling, partial curve, poor fit] |  |
| COc1ccc(CC2(CO)CCN(S(=O)(=O)c3c(C)nn(C)c3C)CC2)cc1 | inconclusive: 6.51 µM [falling, partial curve, poor fit] |  |
| O=C(COC(=O)c1ccc2c(c1[N+](=O)[O-])C(=O)c1ccccc1C2=O)NC1CC1 |  | inactive: -21.7% |
| COc1ccc(-c2cc(CS(=O)(=O)c3ccccc3)on2)cc1 | inconclusive: 20.6 µM [activator, partial curve] |  |
| COc1ccc(C(=O)CSc2nn3c(=O)c(C(C)(C)C)nnc3s2)cc1 | inconclusive: 13 µM [activator, single point] |  |
| O=C(N/N=C/c1cccc([N+](=O)[O-])c1)c1nc2ccccc2c(=O)[nH]1 | inconclusive: 29.1 µM [activator, single point] |  |
| COc1ccc(CC2(CO)CCN(C(C)Cc3ccc(Cl)cc3)CC2)cc1 (centres undefined) | inconclusive: 20.6 µM [activator, single point] |  |
| c1ccc(Nc2nc(CSc3ncn[nH]3)cs2)cc1 | inconclusive: 1.84 µM [activator, partial curve] |  |

Full records, quoted from the list.
O=C(N/N=C/c1cccc([N+](=O)[O-])c1)c1nc2ccccc2c(=O)[nH]1 is listed with Potency: inconclusive: 29.1 µM [activator, single point]
O=C(CCc1ccccc1)Nc1ccc(F)cc1F is listed with Potency: inconclusive: 9.2 µM [activator, partial curve, poor fit]

Additional compounds:

| Compound | Potency | activity change, negative = inhibition |
| --- | --- | --- |
| COCCNC(=O)CSc1ccccc1C(=O)NC1CCCc2ccccc21 (centres undefined) |  | inactive: 3.75% |
| Cc1nc(NC(=O)C23CC4CC(CC(C4)C2)C3)sc1Cc1ccc2c(c1)OCO2 | inconclusive: 4.11 µM [activator, single point] |  |
| O=C(NC(NNc1ccc([N+](=O)[O-])cc1)(C(F)(F)F)C(F)(F)F)c1ccccc1Cl |  | inactive: -19.9% |
| Nc1cccc2c1C(=O)c1ccc(Cl)cc1C2=O | inconclusive: 16.4 µM [activator, partial curve] |  |
| COc1ccc(OC)c(/C=N/NC(=O)C(=O)N2CCCC2)c1 | inconclusive: 2.06 µM [activator, partial curve, poor fit] |  |
| O=C1c2ccccc2C(=O)N1N(c1ccccc1)c1ccccc1 |  | inactive: 5.21% |
| COc1ccc(/C=C2\SC(=S)N(CCC(=O)Nc3ccccc3C(=O)O)C2=O)cc1 | inconclusive: 9.2 µM [falling, partial curve, poor fit] |  |
| CCc1ccccc1N1CC(c2nnc(NC(=O)c3ccco3)s2)CC1=O (centres undefined) |  | inactive: 5.26% |
| O=C1Nc2ccc(S(=O)(=O)NCCC3=CCCCC3)c3cccc1c23 | inconclusive: 29.1 µM [falling, single point] |  |
| NC(=NCCc1c[nH]c2ccccc12)NC(=O)c1ccc(Cl)cc1 | inconclusive: 29.1 µM [falling, single point] |  |
| COc1cc2c(cc1OC)CN(C(=O)C1CCCN1S(=O)(=O)c1ccc(C)cc1)CC2 (centres undefined) | inconclusive: 13 µM [falling, partial curve] |  |
| O=C(COC(=O)CCCN1C(=O)c2cccc3cccc(c23)C1=O)Nc1cccc(C(F)(F)F)c1 |  | inactive: -20.7% |
| COCCN1CCN(C(=O)c2ccc3nc(Cc4ccccc4F)oc3c2)CC1 | inconclusive: 29.1 µM [activator, single point] |  |
| CCCCCn1c(=O)[nH]c2cc(C(=O)N3CCN(c4ccc(C(C)=O)cc4)CC3)ccc2c1=O | active: 20.6 µM |  |
| O=C(Cn1cc(/C=N/NC(=O)c2ccccc2Br)c2ccccc21)Nc1ccc(F)cc1 | inconclusive: 11.6 µM [falling, partial curve, poor fit] |  |
| O=C(NCCC1=CCCCC1)c1c(O)nc2sccn2c1=O | inconclusive: 25.9 µM [falling, partial curve, poor fit] |  |
| CCOc1ccc(CNC(=O)C2CCN(C3=NS(=O)(=O)C(c4ccc(C)cc4)=C3CC)CC2)cc1 | inconclusive: 16.4 µM [falling, single point] |  |
| Cc1ccc(S(=O)(=O)N(CC(=O)Nc2ccc(Cl)c([N+](=O)[O-])c2)C2CCCCC2)cc1 | inconclusive: 29.1 µM [falling, single point] |  |
| CCOC(=O)c1cc(NC(=O)c2ccc(Cl)cc2)c(=O)oc1-c1ccccc1 | inconclusive: 4.61 µM [falling, full curve, poor fit] |  |
| CCOc1ccc(S(=O)(=O)N(C)c2ccc(OCC(=O)NCC3CCCCC3)cc2)cc1 | inconclusive: 29.1 µM [falling, single point] |  |
| Cc1ccc(N(NC(=O)C(O)(c2ccccc2)c2ccccc2)C(=O)CCl)cc1 | inconclusive: 29.1 µM [falling, single point] |  |
| Cc1ccccc1N1CCN(CCC(=O)Nc2ccc(F)cc2)CC1 |  | inactive: -10.4% |

| Compound | Potency | activity change, negative = inhibition |
| --- | --- | --- |
| COC(=O)c1c(SCC(=O)Nc2cccc(C(F)(F)F)c2)[nH]c2ccccc2c1=O | inconclusive: 2.31 µM [falling, full curve] |  |
| Cc1noc(C)c1CSc1nc2ccccc2n1CCc1ccccc1 | inconclusive: 25.9 µM [falling, partial curve, poor fit] |  |
| COc1ccc(C(C#N)N2N=C(C)CC2(C)C)cc1OC (centres undefined) | inconclusive: 7.31 µM [activator, partial curve, poor fit] |  |
| O=C(Nc1ncc(Cc2cccc(Cl)c2)s1)C1=NCCN1 | inconclusive: 2.91 µM [falling, partial curve, poor fit] |  |
| O=C(/C=C/c1ccco1)Nc1ccc(CN2CCOCC2)cc1 | inconclusive: 3.66 µM [activator, partial curve] |  |
| COc1ccccc1C(=O)Nc1ccccc1N1CCN(C(=O)c2ccc(Cl)cc2)CC1 | inconclusive: 8.2 µM [falling, partial curve] |  |
| COC(=O)c1cc(NS(=O)(=O)c2cccc(Cl)c2)ccc1N1CCOCC1 | inconclusive: 20.6 µM [falling, single point] |  |
| CCCc1ccc(OCc2ccc(C(=O)N/N=C/c3cccnc3)o2)cc1 | inconclusive: 0.517 µM [activator, full curve, poor fit] |  |
| CCOc1ccc(S(=O)(=O)/N=C(/Nc2ccc(C)c(S(=O)(=O)N3CCOCC3)c2)c2ccccc2)cc1 | inconclusive: 20.6 µM [falling, partial curve] |  |
| CC(C)(C)OC(=O)N1CCC(c2c(C(=O)NCCN3CCOCC3)cnn2-c2ccccc2)CC1 | inconclusive: 14.6 µM [activator, partial curve, poor fit] |  |
| Cc1ccccc1C(=O)Nc1nnc(-c2ccco2)o1 | inconclusive: 5.8 µM [activator, single point] |  |
| CSc1ccc(NS(=O)(=O)c2ccc(-n3cnnn3)cc2)cc1 | inconclusive: 18.4 µM [falling, partial curve] |  |
| CCN(c1ccccc1)S(=O)(=O)c1cc(C(=O)Nc2ccc(Br)cc2)ccc1F | active: 5.8 µM |  |
| CCOC(=O)c1c(Nc2ccccc2)nnc(-c2ccccc2)c1-c1ccccc1 | inconclusive: 23.1 µM [falling, single point] |  |
| N/C(=N\OC(=O)c1cccc(F)c1)c1ccccn1 | inconclusive: 0.651 µM [activator, partial curve] |  |
| COC(=O)c1sccc1N/N=C/c1cccc(Oc2ccccc2)c1 | inconclusive: 1.64 µM [activator, full curve] |  |
| COc1cccc(Cn2c(SCc3ccc(C(=O)N4CCC(C)CC4)cc3)nc3ccncc32)c1 | active: 20.6 µM |  |
| CC(C)(C)C(=O)Cn1ncc(Br)c(Br)c1=O | inconclusive: 16.4 µM [falling, single point] |  |
| Cc1ccc(OCc2nnc(N)s2)cc1 | inconclusive: 29.1 µM [activator, single point] |  |
| CCC(Cc1ccccc1)NC(=O)c1csc2c1CCCCC2 (centres undefined) | inconclusive: 3.66 µM [activator, full curve] |  |
